Among the data in patent US12077566 are binding values, retold here.

Results are given in words; binding and its absence hold for the method and conditions named. Where a sequence is shown, tags or fusion partners need not be part of it.

In this experiment the target is PDGFR. Kind of experiment: immunofluorescence co-localization on cells.

B1: recombinant immunoregulatory protein of Ganoderma lucidum (rLZ-8) (protein)
chain: MSDTALIFRLAWDVKKLSFDYTPNWGRGNPNNFIDTVTFPKVLTDKAYTYRVAVSGRNLGVKPSYAVESDGSQKVNFLEYNSGYGIADTNTIQVFVVDPDTNNDFIIAQWN
As for B1, the binding result is on record as “no binding”.
